Test results reported in patent US20220002426A1.

Amino acid sequences for entries named in this document (tags omitted). A change or cut given only in a name is not applied to a line headed by its entry.
UniProt P20333: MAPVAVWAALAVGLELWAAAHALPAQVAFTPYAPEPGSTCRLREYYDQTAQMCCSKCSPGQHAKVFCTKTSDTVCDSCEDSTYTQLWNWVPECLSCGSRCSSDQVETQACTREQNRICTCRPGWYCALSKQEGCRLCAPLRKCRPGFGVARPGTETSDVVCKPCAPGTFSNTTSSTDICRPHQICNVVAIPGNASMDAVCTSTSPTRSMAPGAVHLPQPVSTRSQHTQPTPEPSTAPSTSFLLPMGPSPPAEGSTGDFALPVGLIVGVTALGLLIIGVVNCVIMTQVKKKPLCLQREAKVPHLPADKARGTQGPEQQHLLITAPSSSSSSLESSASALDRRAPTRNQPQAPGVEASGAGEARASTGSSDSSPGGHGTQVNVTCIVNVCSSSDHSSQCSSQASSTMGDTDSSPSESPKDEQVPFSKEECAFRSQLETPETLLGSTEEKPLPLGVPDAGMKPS

Assays:
hTNFR2-Δ2 (human) [1] = assay: FACS, transfected HEK293 cells
hTNFR2-Δ1 (human) [2] = molecular target: hTNFR2-Δ1 (human) (UniProt P20333); assay: FACS, transfected HEK293 cells
hTNFR2-Δ2 (human) [3] = assay: FACS, transfected HEK293
hTNFR2-Δ1 (human) [4] = molecular target: hTNFR2-Δ1 (human) (UniProt P20333); assay: FACS, transfected HEK293
hTNFR2-Δ1 + 3 (human) [5] = molecular target: hTNFR2-Δ1 + 3 (human) (UniProt P20333); assay: FACS, transfected HEK293 cells
hTNFR2-Δ1 + 3 (human) [6] = molecular target: hTNFR2-Δ1 + 3 (human) (UniProt P20333); assay: FACS, transfected HEK293
hTNFR2-Δ4 (human) = hTNFR2-Δ4 (human) (UniProt P20333); assay: FACS, transfected HEK293 cells
hTNFR2-Δ2 + 4 (human) [7] = molecular target: hTNFR2-Δ2 + 4 (human) (UniProt P20333); assay: FACS, transfected HEK293 cells
hTNFR2-Δ2 + 4 (human) [8] = molecular target: hTNFR2-Δ2 + 4 (human) (UniProt P20333); assay: FACS, transfected HEK293

Measured: binding

B1: 001-G10 (antibody, V domains shown)
VH: EVQLLESGGGLVQPGGSLRLSCAASGFTFSAYGMHWVRQAPGKGLEWVAVVSYDGREKHYADSVKGRFTISRDNSKNTLYLQMNSLRAEDTAVYYCARSDGGYDSDSGYYWGQGTLVTVSS
VL: QSVLTQPPSASGTPGQRVTISCSGSTSNIGSNFVYWYQQLPGTAPKLLIYDNNKRPSGVPDRFSGSKSGTSASLAISGLRSEDEADYYCSSYAYSDNILFGGGTKLTVLG
binds: hTNFR2-Δ2 (human) [1] | hTNFR2-Δ1 (human) [2]

B2: 001-F02 (antibody, V domains shown)
VH: EVQLLESGGGLVQPGGSLRLSCAASGFTFSDYYMSWVRQAPGKGLEWVANINTDGSEKYYLDSVKGRFTISRDNSKNTLYLQMNSLRAEDTAVYYCAREEYGAFDIWGQGTLVTVSS
VL: QSVLTQPPSASGTPGQRVTISCSGSSSNIGSNTVNWYQQLPGTAPKLLIYDNNKRPSGVPDRFSGSKSGTSASLAISGLRSEDEADYYCQSFDRGLSGSIVFGGGTKLTVLG
binds: hTNFR2-Δ2 (human) [1] | hTNFR2-Δ1 (human) [2] | hTNFR2-Δ2 (human) [3] | hTNFR2-Δ1 (human) [4]

B3: 001-F06 (antibody, V domains shown)
VH: EVQLLESGGGLVQPGGSLRLSCAASGFTFSSYAMHWVRQAPGKGLEWVSAISGGATTTYYADSVKGRFTISRDNSKNTLYLQMNSLRAEDTAVYYCAKGGTGDPYYFDYWGQGTLVTVSS
VL: QSVLTQPPSASGTPGQRVTISCTGSSSNIGAGYDVHWYQQLPGTAPKLLIYRNNQRPSGVPDRFSGSKSGTSASLAISGLRSEDEADYYCAARDDGLSGPVFGGGTKLTVLG
not listed: hTNFR2-Δ4 (human) | hTNFR2-Δ2 + 4 (human) [7] | hTNFR2-Δ2 + 4 (human) [8]
binds: all other assays above

B4: 004-E08 (antibody, V domains shown)
VH: EVQLLESGGGLVQPGGSLRLSCAASGFTFSRYWMHWVRQVPGKGLEWVSGISDSGVVTYYADSVKGRFTISRDNSKNTLYLQMNSLRAEDTAVYYCARAQSVAFDIWGQGTLVTVSS
VL: QSVLTQPPSASGTPGQRVTISCSGSSSNIGAGHDVHWYQQLPGTAPKLLIYYDDLLPSGVPDRFSGSKSGTSASLAISGLRSEDEADYYCAAWDDSLSGWVFGGGTKLTVLG
binds: hTNFR2-Δ2 (human) [1] | hTNFR2-Δ1 (human) [2] | hTNFR2-Δ2 (human) [3] | hTNFR2-Δ1 (human) [4]

B5: 001-H10 (antibody, V domains shown)
VH: EVQLLESGGGLVQPGGSLRLSCAASGFTFDDYGMSWVRQAPGKGLEWVSVIYSGGSTYYADSVKGRFTISRDNSKNTLYLQMNSLRAEDTAVYYCARDRSSSWYRDGMDVWGQGTLVTVSS
VL: QSVLTQPPSASGTPGQRVTISCTGSSSNIGAGYDVHWYQQLPGTAPKLLIYGNSNRPSGVPDRFSGSKSGTSASLAISGLRSEDEADYYCAAWDDSLSGWVFGGGTKLTVLG
not listed: hTNFR2-Δ1 + 3 (human) [5] | hTNFR2-Δ1 + 3 (human) [6]
binds: all other assays above

No constants are given. Whether binding was seen depends on the method and setting. Binding calls can cover weak binding; strength is not graded here.
